Results from patent publication US20140275485A1.
These are yes or no findings as the source states them, for the method shown. Some binding calls cover weakened binding; strength is not graded here.

Columns and labels:
[1] = biological target: T1, Lp-PLA2 antigen (human) (UniProt Q13093); test: Luminex pairing assay; members of a bin compete for binding to an Lp-PLA2 epitope
T1 sequence (looked up): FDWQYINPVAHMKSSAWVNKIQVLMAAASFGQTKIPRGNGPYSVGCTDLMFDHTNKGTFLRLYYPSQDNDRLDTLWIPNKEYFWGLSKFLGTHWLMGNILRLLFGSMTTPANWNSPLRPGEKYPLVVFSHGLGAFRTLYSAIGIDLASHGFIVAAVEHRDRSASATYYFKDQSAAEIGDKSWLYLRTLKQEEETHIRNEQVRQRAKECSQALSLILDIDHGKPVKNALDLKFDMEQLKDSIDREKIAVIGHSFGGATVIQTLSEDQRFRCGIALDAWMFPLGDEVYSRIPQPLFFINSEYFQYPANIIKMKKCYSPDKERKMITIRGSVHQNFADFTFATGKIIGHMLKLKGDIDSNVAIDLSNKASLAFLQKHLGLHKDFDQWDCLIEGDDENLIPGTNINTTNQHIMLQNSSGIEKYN

[2] = biological target: T2, Recombinant Lp-PLA2 (human) (UniProt Q13093); test: sandwich ELISA, goat polyclonal anti-Lp-PLA2 capture
T2 sequence (looked up): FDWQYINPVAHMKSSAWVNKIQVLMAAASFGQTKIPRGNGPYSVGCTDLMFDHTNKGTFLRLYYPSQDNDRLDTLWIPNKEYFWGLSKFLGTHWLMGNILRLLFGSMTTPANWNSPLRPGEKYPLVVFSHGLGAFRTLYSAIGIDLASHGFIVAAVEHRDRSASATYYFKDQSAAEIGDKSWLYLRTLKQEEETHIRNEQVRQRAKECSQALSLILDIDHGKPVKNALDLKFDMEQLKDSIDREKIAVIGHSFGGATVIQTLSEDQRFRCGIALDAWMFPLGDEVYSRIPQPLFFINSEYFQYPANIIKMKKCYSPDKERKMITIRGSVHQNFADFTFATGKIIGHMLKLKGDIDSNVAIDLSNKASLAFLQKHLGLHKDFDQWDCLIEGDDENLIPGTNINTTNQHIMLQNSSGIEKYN

- binding [1]: binds
- binding [2]: binds
B1: LpPLA2.B38.2 (antibody, IgG1, V domains shown)
VH: EVKLEESGPELKKPGETVKISCKASGYTFTDYSVHWVKQAPGKGLKWMGWINTDTGEPTFADDFKGRFAFSLETSTSTAYLQINNLKNEDTATYFCARGDNYLYYYTMDYWGQGISVTVSS
VL: DIVLTQTHKFMSTSVGDRVNITCKASQDVNTAVAWYQQKPGQSPKLLIKWASTRHTGVPDRFTGSGSGTDYIFTISSVQAEDLALYYCQQHYSTPWTFGGGTKLEIKR
